Measurements from “University of Dundee, Small-Polar-MMV Screening Library” (2021), ChEMBL document CHEMBL3988442.

Amino acid sequences for entries named in this document (tags omitted). Residues count along the entry.
UniProt Q8IDJ8, 1-583: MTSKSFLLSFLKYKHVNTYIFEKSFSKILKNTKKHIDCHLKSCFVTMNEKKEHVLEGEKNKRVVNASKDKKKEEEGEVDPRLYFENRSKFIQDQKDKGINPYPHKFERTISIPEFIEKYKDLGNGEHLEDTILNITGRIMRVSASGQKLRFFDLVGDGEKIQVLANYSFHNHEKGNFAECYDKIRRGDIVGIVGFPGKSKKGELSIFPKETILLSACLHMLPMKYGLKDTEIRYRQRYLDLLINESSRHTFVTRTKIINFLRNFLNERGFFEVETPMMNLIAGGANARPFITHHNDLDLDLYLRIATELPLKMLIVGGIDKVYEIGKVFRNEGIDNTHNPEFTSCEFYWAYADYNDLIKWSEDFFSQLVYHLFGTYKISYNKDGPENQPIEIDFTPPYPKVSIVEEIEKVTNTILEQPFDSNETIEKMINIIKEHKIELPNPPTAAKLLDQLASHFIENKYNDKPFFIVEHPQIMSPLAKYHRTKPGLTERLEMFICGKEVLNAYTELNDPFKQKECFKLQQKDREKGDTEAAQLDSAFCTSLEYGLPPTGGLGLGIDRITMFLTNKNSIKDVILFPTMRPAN
UniProt Q4DA54, 1-478: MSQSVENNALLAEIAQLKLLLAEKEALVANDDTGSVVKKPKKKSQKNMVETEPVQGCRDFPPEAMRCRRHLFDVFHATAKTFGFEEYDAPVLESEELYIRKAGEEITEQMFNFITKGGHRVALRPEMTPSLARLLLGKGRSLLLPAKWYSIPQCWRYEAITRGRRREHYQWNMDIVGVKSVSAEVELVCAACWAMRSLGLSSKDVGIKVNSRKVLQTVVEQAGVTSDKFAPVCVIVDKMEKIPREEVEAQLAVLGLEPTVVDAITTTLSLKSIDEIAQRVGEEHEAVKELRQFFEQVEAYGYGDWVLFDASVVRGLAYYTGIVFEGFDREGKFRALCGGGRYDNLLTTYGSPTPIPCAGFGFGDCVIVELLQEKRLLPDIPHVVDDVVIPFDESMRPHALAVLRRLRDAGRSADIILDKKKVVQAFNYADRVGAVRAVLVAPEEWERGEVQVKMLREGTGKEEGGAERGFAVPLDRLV

Leishmania in macrophages: 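Cell assay of Leishmania donovani living inside macrophages; the read-out is not stated. Concentration: 30 µM. Direction is inferred from retests: higher values go with stronger inhibition. Size under these conditions: about 69,000 compounds, about 1,000 of them at 50% or above in at least one test.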
T. brucei: 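Whole-parasite assay of Trypanosoma brucei over 72 hours; the read-out is not stated. Concentration: 30 µM. Direction is inferred from retests: higher values go with stronger inhibition. Values scatter widely below zero; nearly all retest evidence comes from the higher of the two concentrations used. Of about 64,000 compounds tested this way, about 940 (1.5%) reached 50% or more in at least one test.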
Toxoplasma: 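Assay of Toxoplasma gondii numbers, read through their beta-galactosidase reporter with a colour substrate. Tested at 10 µM. The record gives no direction; the compounds picked for IC50 retests had high values, so higher reads as fewer parasites. Size under these conditions: about 67,000 compounds, about 260 of them at 50% or above in at least one test.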
PfKRS1: 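Lysine-tRNA ligase, Plasmodium falciparum 3D7 (UniProt Q8IDJ8). Enzyme assay of the cytosolic lysyl-tRNA synthetase in 384-well plates, read by luminescence. Tested at 30 µM. Direction is inferred from only a few compounds that gave an IC50; most scored high, so higher reads as stronger inhibition. Size under these conditions: about 69,000 compounds, about 49 of them at 50% or above in at least one test.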
TcHisRS: 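Enzyme assay of histidyl-tRNA synthetase; the read-out is not stated. Target: Histidine-tRNA ligase, Trypanosoma cruzi CL Brener (UniProt Q4DA54). Concentration: 30 µM. Direction is inferred from retests: higher values go with stronger inhibition. Of about 69,000 compounds tested this way, about 31 (0.045%) reached 50% or more in at least one test.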

The filed quantity is “Percent Effect” (%).
The controls that fix the scale are not given in the record; negative values are as filed.
The compounds are a random part of those screened.

SMILES: CCN(Cc1nc2c(cnn2C)c(=O)[nH]1)c1ccc(OC)c(OC)c1
Leishmania in macrophages: 5.542%
T. brucei: 6.583%
Toxoplasma: 0.2812%
PfKRS1: 0.7985%
TcHisRS: 0.3759%

SMILES: CS(=O)(=O)N1CCC(c2nnc3ccc(C(=O)N4CCCC4)cn23)C1 (stereo not drawn)
Leishmania in macrophages: -18.51%
T. brucei: -19.68%
Toxoplasma: -3.983%
PfKRS1: 3.063%
TcHisRS: 1.639%

SMILES: CC(c1ccon1)N(C)C(=O)C1CCN(C2CCCCC2)CC1 (stereo not drawn)
Leishmania in macrophages: 13.57%
T. brucei: 10.64%
Toxoplasma: -12.91%
PfKRS1: 2.421%
TcHisRS: 7.407%

SMILES: Cc1cccc(N2Cc3nc(=O)[nH]n3C2=O)c1
Leishmania in macrophages: -16.28%
T. brucei: -8.939%
Toxoplasma: -9.444%
PfKRS1: 6.309%
TcHisRS: 6.011%

SMILES: CC(Cn1ccnc1)NCc1cc(Br)c2c(c1)OCO2.Cl (stereo not drawn)
Leishmania in macrophages: -10.08%
T. brucei: -3.244%
Toxoplasma: 2.955%

SMILES: O=C(NCc1ccccc1F)N1CCC(C2OCCO2)CC1
Leishmania in macrophages: 3.095%
T. brucei: -22.73%
Toxoplasma: -0.4525%
PfKRS1: -0.1741%
TcHisRS: 5.435%

SMILES: CN(C)C(=O)c1c[nH]nc1C1CCN(S(=O)(=O)c2ccccc2)CC1
Leishmania in macrophages: 8.821%
PfKRS1: 1.075%
TcHisRS: 9.231%

SMILES: COc1ccccc1N1CCC(CNCc2cccc(C#N)c2)C1 (stereo not drawn)
Leishmania in macrophages: 22.3%
T. brucei: 38.86%
Toxoplasma: -0.4021%
PfKRS1: -2.191%
TcHisRS: -1.504%

SMILES: [H][C@@]12CNC[C@]1([H])CN(C(=O)C1CCCC1)C2
Leishmania in macrophages: -1.023%
T. brucei: -16.81%
Toxoplasma: -4.771%

SMILES: Cc1nn(C(C)C)c(C)c1CN1CCN(C2CCCCC2)C(=O)C1.O=C(O)CC(O)(CC(=O)O)C(=O)O
Leishmania in macrophages: 21.9%
T. brucei: -4.336%
Toxoplasma: 2.959%

SMILES: CN1[C@@H](C(=O)NCC2CC2)C[C@H]2CN(Cc3ccsc3)C[C@H]21
PfKRS1: -0.7416%
TcHisRS: 1.442%

SMILES: CS(=O)(=O)CCNC1CCCN(Cc2noc(C3CC3)n2)C1 (stereo not drawn)
Leishmania in macrophages: 1.102%
T. brucei: 1.952%
Toxoplasma: -4.492%
PfKRS1: 2.239%
TcHisRS: 5.128%

SMILES: CC(C)n1nc2c(cc1=O)CN(c1ncnc3ccccc13)CC2
Leishmania in macrophages: 35.81%
T. brucei: 1.595%
Toxoplasma: -24.89%
PfKRS1: 9.142%
TcHisRS: 10%

SMILES: CCc1ccc(C(=O)NC[C@H]2CCCN2C(=O)c2ccc(CC)o2)o1
Leishmania in macrophages: -3.971%
T. brucei: -52.54%
Toxoplasma: 3.442%
PfKRS1: 4.719%
TcHisRS: 8.287%

SMILES: CC(=O)c1ccc(C(=O)N2C[C@@H]3CC[C@H](C2)N(Cc2ccccc2)C3)s1
PfKRS1: 3.831%
TcHisRS: 11.35%

SMILES: Cc1cccc(CNC2(CCO)CCOCC2)c1C
Leishmania in macrophages: 9.206%
T. brucei: -76.72%
Toxoplasma: 1.011%
PfKRS1: 0.9279%
TcHisRS: 5.195%

SMILES: Cc1ccc(CC(=O)NC2CCN(c3cccc(Cl)c3)C2)cn1 (stereo not drawn)
Leishmania in macrophages: 19.11%
T. brucei: -5.009%
Toxoplasma: 0.194%
PfKRS1: 2.091%
TcHisRS: 8.861%

SMILES: Cc1ccc(CCc2nc(C3CCOC3)no2)o1 (stereo not drawn)
Leishmania in macrophages: 2.036%
T. brucei: -38.18%
Toxoplasma: -12.14%
PfKRS1: -2.052%
TcHisRS: 3.483%

SMILES: COc1ccc(CNC(=O)N2CCc3sccc3C2)cc1O
Leishmania in macrophages: -9.191%
T. brucei: -27.47%
Toxoplasma: -39.21%
PfKRS1: 7.878%
TcHisRS: 6.548%

SMILES: CC(NC(=O)c1ccc(C#N)cn1)C1(N2CCOCC2)CCCC1 (stereo not drawn)
Leishmania in macrophages: 4.666%
T. brucei: 5.662%
Toxoplasma: -1.163%
PfKRS1: -2.734%
TcHisRS: 3.867%

SMILES: Cc1[nH]ncc1C(C)NCc1ccc(F)cc1 (stereo not drawn)
Leishmania in macrophages: 34.76%
T. brucei: -5.114%
Toxoplasma: -11.18%
PfKRS1: -1.824%
TcHisRS: 7.407%

SMILES: c1cncc(COCC2C[C@@H]3OCCN(Cc4cccnc4)[C@H]3C2)c1 (stereo partly drawn)
PfKRS1: 5.091%
TcHisRS: 11.11%

SMILES: O=C(O)c1cccnc1CN1CCCC1CCc1ccccc1 (stereo not drawn)
Leishmania in macrophages: 24.47%
T. brucei: 6.446%
Toxoplasma: -10.86%
PfKRS1: 2.259%
TcHisRS: -6.468%

SMILES: [H][C@@]12CNC[C@]1([H])N(C(=O)C1CCC1)CCO2
Leishmania in macrophages: 18.99%
T. brucei: -48.78%
Toxoplasma: 2.391%

SMILES: [H][C@]12CN(C)C(=O)[C@@]1([H])CN(C(=O)C1CC=CC1)C2
Leishmania in macrophages: -10.87%
T. brucei: -168.3%
Toxoplasma: -6.219%

SMILES: Cc1ccc(C(=O)N(C)Cc2csc(Br)c2)c(=O)[nH]1
Leishmania in macrophages: -16.82%
T. brucei: -22.6%
Toxoplasma: -37.66%
PfKRS1: 1.663%
TcHisRS: 4.523%

SMILES: CCc1nnc(CNC2CCc3nc(C(C)C)nn3C2)o1 (stereo not drawn)
Leishmania in macrophages: -6.024%
T. brucei: -11.55%
Toxoplasma: 9.097%
PfKRS1: 1.574%
TcHisRS: 8.43%

SMILES: c1ccc(CCN2CCCC(Cn3ccnc3)C2)cc1 (stereo not drawn)
Leishmania in macrophages: 21.33%
T. brucei: 12.93%
Toxoplasma: -0.9265%
PfKRS1: 25.37%
TcHisRS: 1.681%

2 of the entries, repeated:

SMILES,Leishmania in macrophages,T. brucei,Toxoplasma,PfKRS1,TcHisRS
CC(C)n1nc2c(cc1=O)CN(c1ncnc3ccccc13)CC2,35.81%,1.595%,-24.89%,9.142%,10%
CS(=O)(=O)CCNC1CCCN(Cc2noc(C3CC3)n2)C1 (stereo not drawn),1.102%,1.952%,-4.492%,2.239%,5.128%